Measured values: paper PMC12527946
Results are given in words; binding and its absence hold for the method and conditions named.

Amino acid sequences for entries named in this document (tags omitted). A change or cut given only in a name is not applied to a line headed by its entry. Chains listed by the source or under a name are the forms on record and can include a tag or linker.
Clu-Δ(214–238) (tail mutant TL1) (P10909, form named): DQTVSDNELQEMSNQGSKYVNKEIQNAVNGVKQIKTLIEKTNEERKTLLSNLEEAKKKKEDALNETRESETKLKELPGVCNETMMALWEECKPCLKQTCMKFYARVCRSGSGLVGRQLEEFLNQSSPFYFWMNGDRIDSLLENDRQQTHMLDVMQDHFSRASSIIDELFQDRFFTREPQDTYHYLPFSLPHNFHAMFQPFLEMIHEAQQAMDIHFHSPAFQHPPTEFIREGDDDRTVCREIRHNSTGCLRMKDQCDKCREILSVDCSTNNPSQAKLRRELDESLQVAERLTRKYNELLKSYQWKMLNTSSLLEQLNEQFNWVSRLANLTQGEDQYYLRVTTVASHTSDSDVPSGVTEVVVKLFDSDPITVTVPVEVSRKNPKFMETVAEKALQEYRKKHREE

Target: Clu-Δ(214–238) (tail mutant TL1) (human) (UniProt P10909)
Assay: SEC; 10 μM Clu in 20 mM Na-acetate pH 5.0, 100 mM NaCl, 1 mM EDTA, overnight or longer on ice; Superdex-200 Increase 3.2/300 at room temperature; both purified

## Clu-Δ(214–238) (tail mutant TL1) (from UniProt P10909 23-449)
  binding: no binding (condition: at pH 5.0 (10 μM))
